Test results reported in patent US9925168B2, “Preparation of micronized particles of an antimuscarinic compound by hydrodynamic cavitation” (CHIESI FARMACEUTICI S.P.A., priority 2016, dated 2018).

Experiments:
[1] = DVS, 10% r.h. to 90% r.h.
[2] = helium picnometry, mean of triplicate
[3] = UPLC-PDA, at the release and/or after 3 months

In the case of `C[N+]1(C)CCC(OC(=O)C(O)(c2ccccc2)C2CCCC2)C1.[Br-]` (racemic) [Example 1, (3S,2′R), (3R,2′S)-3-[(Cyclopentylhydroxyphenylacetyl)oxy]-1,1-dimethylpyrrolidinium bromide racemic mixture], the moisture uptake [1] is reported as “less than 2.5%”, the “density of the powder” value [2] is reported as 1.3917 g/mL and the “degradation/impurities peaks (chemical stability)” value [3] is reported as “No degradation/impurities peaks were detected”.
